We go through 13 molecules from doi:10.1101/2024.01.03.574021.

Chains of the proteins cited; added tags and fusions are not shown.
UniProt Q04206: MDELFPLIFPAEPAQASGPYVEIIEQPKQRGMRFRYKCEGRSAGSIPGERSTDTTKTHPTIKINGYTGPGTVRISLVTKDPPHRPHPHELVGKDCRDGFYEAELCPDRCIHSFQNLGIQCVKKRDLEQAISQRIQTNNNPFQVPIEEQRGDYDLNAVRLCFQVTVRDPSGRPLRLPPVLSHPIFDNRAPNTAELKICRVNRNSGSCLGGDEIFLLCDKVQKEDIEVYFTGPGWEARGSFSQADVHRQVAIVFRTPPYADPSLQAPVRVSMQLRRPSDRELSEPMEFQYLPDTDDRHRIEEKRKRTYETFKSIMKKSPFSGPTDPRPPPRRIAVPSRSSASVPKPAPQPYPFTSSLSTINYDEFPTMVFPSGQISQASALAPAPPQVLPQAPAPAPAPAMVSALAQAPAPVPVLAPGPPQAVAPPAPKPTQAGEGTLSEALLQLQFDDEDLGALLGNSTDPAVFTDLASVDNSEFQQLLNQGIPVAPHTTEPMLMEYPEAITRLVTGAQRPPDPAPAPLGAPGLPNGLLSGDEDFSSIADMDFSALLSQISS

Sequences and labels used below:
B1: Zinc finger protein GLI-similar 2 (GLIS2) (protein, UniProt Q9BZE0 1-524)
chain: MHSLDEPLDLKLSITKLRAAREKRERTLGVVRPRALHRELGLVDDSPTPGSPGSPPSGFLLNSKFPEKVEGRFSAAPLVDLSLSPPSGLDSPNGSSSLSPERQGNGDLPPVPSASDFQPLRYLDGVPSSFQFFLPLGSGGALHLPASSFLTPPKDKCLSPDLPLPKQLVCRWAKCNQLFELLQDLVDHVNDYHVKPEKDAGYCCHWEGCARHGRGFNARYKMLIHIRTHTNEKPHRCPTCSKSFSRLENLKIHNRSHTGEKPYVCPYEGCNKRYSNSSDRFKHTRTHYVDKPYYCKMPGCHKRYTDPSSLRKHIKAHGHFVSHEQQELLQLRPPPKPPLPAPDGGPYVSGAQIIIPNPAALFGGPGLPGLPLPLAPGPLDLSALACGNGGGSGGGGGMGPGLPGPVLPLNLAKNPLLPSPFGAGGLGLPVVSLLAGAAGGKAEGEKGRGSVPTRALGMEGHKTPLERTESSCSRPSPDGLPLLPGTVLDLSTGVNSAASSPEALAPGWVVIPPGSVLLKPAVVN
B2: CEBPD (protein, UniProt P49716 1-269)
chain: MSAALFSLDGPARGAPWPAEPAPFYEPGRAGKPGRGAEPGALGEPGAAAPAMYDDESAIDFSAYIDSMAAVPTLELCHDELFADLFNSNHKAGGAGPLELLPGGPARPLGPGPAAPRLLKREPDWGDGDAPGSLLPAQVAACAQTVVSLAAAGQPTPPTSPEPPRSSPRQTPAPGPAREKSAGKRGPDRGSPEYRQRRERNNIAVRKSRDKAKRRNQEMQQKLVELSAENEKLHQRVEQLTRDLAGLRQFFKQLPSPPFLPAAGTADCR
B3: zinc finger and BTB domain containing 5 (ZBTB5) (protein, UniProt O15062 1-677)
chain: MDFPGHFEQIFQQLNYQRLHGQLCDCVIVVGNRHFKAHRSVLAACSTHFRALFSVAEGDQTMNMIQLDSEVVTAEAFAALIDMMYTSTLMLGESNVMDVLLAASHLHLNSVVKACKHYLTTRTLPMSPPSERVQEQSARMQRSFMLQQLGLSIVSSALNSSQNGEEQPAPMSSSMRSNLDQRTPFPMRRLHKRKQSAEERARQRLRPSIDESAISDVTPENGPSGVHSREEFFSPDSLKIVDNPKADGMTDNQEDSAIMFDQSFGTQEDAQVPSQSDNSAGNMAQLSMASRATQVETSFDQEAAPEKSSFQCENPEVGLGEKEHMRVVVKSEPLSSPEPQDEVSDVTSQAEGSESVEVEGVVVSAEKIDLSPESSDRSFSDPQSSTDRVGDIHILEVTNNLEHKSTFSISNFLNKSRGNNFTANQNNDDNIPNTTSDCRLESEAPYLLSPEAGPAGGPSSAPGSHVENPFSEPADSHFVRPMQEVMGLPCVQTSGYQGGEQFGMDFSRSGLGLHSSFSRVMIGSPRGGASNFPYYRRIAPKMPVVTSVRSSQIPENSTSSQLMMNGATSSFENGHPSQPGPPQLTRASADVLSKCKKALSEHNVLVVEGARKYACKICCKTFLTLTDCKKHIRVHTGEKPYACLKCGKRFSQSSHLYKHSKTTCLRWQSSNLPSTLL
B4: GLIS1 (protein, UniProt Q8NBF1 1-620)
chain: MAEARTSLSAHCRGPLATGLHPDLDLPGRSLATPAPSCYLLGSEPSSGLGLQPETHLPEGSLKRCCVLGLPPTSPASSSPCASSDVTSIIRSSQTSLVTCVNGLRSPPLTGDLGGPSKRARPGPASTDSHEGSLQLEACRKASFLKQEPADEFSELFGPHQQGLPPPYPLSQLPPGPSLGGLGLGLAGRVVAGRQACRWVDCCAAYEQQEELVRHIEKSHIDQRKGEDFTCFWAGCVRRYKPFNARYKLLIHMRVHSGEKPNKCMFEGCSKAFSRLENLKIHLRSHTGEKPYLCQHPGCQKAFSNSSDRAKHQRTHLDTKPYACQIPGCSKRYTDPSSLRKHVKAHSAKEQQVRKKLHAGPDTEADVLTECLVLQQLHTSTQLAASDGKGGCGLGQELLPGVYPGSITPHNGLASGLLPPAHDVPSRHHPLDATTSSHHHLSPLPMAESTRDGLGPGLLSPIVSPLKGLGPPPLPPSSQSHSPGGQPFPTLPSKPSYPPFQSPPPPPLPSPQGYQGSFHSIQSCFPYGDCYRMAEPAAGGDGLVGETHGFNPLRPNGYHSLSTPLPATGYEALAEASCPTALPQQPSEDVVSSGPEDCGFFPNGAFDHCLGHIPSIYTDT
B5: GLIS3 (protein, UniProt Q8NEA6 1-775)
chain: MMVQRLGLISPPASQVSTACNQISPSLQRAMNAANLNIPPSDTRSLISRESLASTTLSLTESQSASSMKQEWSQGYRALPSLSNHGSQNGLDLGDLLSLPPGTSMSSNSVSNSLPSYLFGTESSHSPYPSPRHSSTRSHSARSKKRALSLSPLSDGIGIDFNTIIRTSPTSLVAYINGSRASPANLSPQPEVYGHFLGVRGSCIPQPRPVPGSQKGVLVAPGGLALPAYGEDGALEHERMQQLEHGGLQPGLVNHMVVQHGLPGPDSQSAGLFKTERLEEFPGSTVDLPPAPPLPPLPPPPGPPPPYHAHAHLHHPELGPHAQQLALPQATLDDDGEMDGIGGKHCCRWIDCSALYDQQEELVRHIEKVHIDQRKGEDFTCFWAGCPRRYKPFNARYKLLIHMRVHSGEKPNKCTFEGCEKAFSRLENLKIHLRSHTGEKPYLCQHPGCQKAFSNSSDRAKHQRTHLDTKPYACQIPGCTKRYTDPSSLRKHVKAHSSKEQQARKKLRSSTELHPDLLTDCLTVQSLQPATSPRDAAAEGTVGRSPGPGPDLYSAPIFSSNYSSRSGTAAGAVPPPHPVSHPSPGHNVQGSPHNPSSQLPPLTAVDAGAERFAPSAPSPHHISPRRVPAPSSILQRTQPPYTQQPSGSHLKSYQPETNSSFQPNGIHVHGFYGQLQKFCPPHYPDSQRIVPPVSSCSVVPSFEDCLVPTSMGQASFDVFHRAFSTHSGITVYDLPSSSSSLFGESLRSGAEDATFLQISTVDRCPSQLSSVYTEG
B6: IRF1 (protein, UniProt P10914 1-325)
chain: MPITRMRMRPWLEMQINSNQIPGLIWINKEEMIFQIPWKHAAKHGWDINKDACLFRSWAIHTGRYKAGEKEPDPKTWKANFRCAMNSLPDIEEVKDQSRNKGSSAVRVYRMLPPLTKNQRKERKSKSSRDAKSKAKRKSCGDSSPDTFSDGLSSSTLPDDHSSYTVPGYMQDLEVEQALTPALSPCAVSSTLPDWHIPVEVVPDSTSDLYNFQVSPMPSTSEATTDEDEEGKLPEDIMKLLEQSEWQPTNVDGKGYLLNEPGVQPTSVYGDFSCKEEPEIDSPGGDIGLSLQRVFTDLKNMDATWLDSLLTPVRLPSIQAIPCAP
B7: S100A9 (protein, UniProt P06702 1-114)
chain: MTCKMSQLERNIETIINTFHQYSVKLGHPDTLNQGEFKELVRKDLQNFLKKENKNEKVIEHIMEDLDTNADKQLSFEEFIMLMARLTWASHEKMHEGDEGPGHHHKPGLGEGTP
B8: FOSL1 (protein, UniProt P15407 1-271)
chain: MFRDFGEPGPSSGNGGGYGGPAQPPAAAQAAQQKFHLVPSINTMSGSQELQWMVQPHFLGPSSYPRPLTYPQYSPPQPRPGVIRALGPPPGVRRRPCEQISPEEEERRRVRRERNKLAAAKCRNRRKELTDFLQAETDKLEDEKSGLQREIEELQKQKERLELVLEAHRPICKIPEGAKEGDTGSTSGTSSPPAPCRPVPCISLSPGPVLEPEALHTPTLMTTPSLTPFTPSLVFTYPSTPEPCASAHRKSSSSSGDPSSDPLGSPTLLAL
B9: N4BP3 (protein, UniProt O15049 1-544)
chain: MATAPGPAGIAMGSVGSLLERQDFSPEELRAALAGSRGSRQPDGLLRKGLGQREFLSYLHLPKKDSKSTKNTKRAPRNEPADYATLYYREHSRAGDFSKTSLPERGRFDKCRIRPSVFKPTAGNGKGFLSMQSLASHKGQKLWRSNGSLHTLACHPPLSPGPRASQARAQLLHALSLDEGGPEPEPSLSDSSSGGSFGRSPGTGPSPFSSSLGHLNHLGGSLDRASQGPKEAGPPAVLSCLPEPPPPYEFSCSSAEEMGAVLPETCEELKRGLGDEDGSNPFTQVLEERQRLWLAELKRLYVERLHEVTQKAERSERNLQLQLFMAQQEQRRLRKELRAQQGLAPEPRAPGTLPEADPSARPEEEARWEVCQKTAEISLLKQQLREAQAELAQKLAEIFSLKTQLRGSRAQAQAQDAELVRLREAVRSLQEQAPREEAPGSCETDDCKSRGLLGEAGGSEARDSAEQLRAELLQERLRGQEQALRFEQERRTWQEEKERVLRYQREIQGGYMDMYRRNQALEQELRALREPPTPWSPRLESSKI
B10: ATF3 (protein, UniProt P18847 1-181)
chain: MMLQHPGQVSASEVSASAIVPCLSPPGSLVFEDFANLTPFVKEELRFAIQNKHLCHRMSSALESVTVSDRPLGVSITKAEVAPEEDERKKRRRERNKIAAAKCRNKKKEKTECLQKESEKLESVNAELKAQIEELKNEKQHLIYMLNLHRPTCIVRAQNGRTPEDERNLFIQQIKEGTLQS
B11: ATF7 (protein, UniProt P17544 1-483)
chain: MGDDRPFVCNAPGCGQRFTNEDHLAVHKHKHEMTLKFGPARTDSVIIADQTPTPTRFLKNCEEVGLFNELASSFEHEFKKAADEDEKKAAAGPLDMSLPSTPDIKIKEEEPVEVDSSPPDSPASSPCSPPLKEKEVTPKPVLISTPTPTIVRPGSLPLHLGYDPLHPTLPSPTSVITQAPPSNRQMGSPTGSLPLVMHLANGQTMPVLPGPPVQMPSVISLARPVSMVPNIPGIPGPPVNSSGSISPSGHPIPSEAKMRLKATLTHQVSSINGGCGMVVGTASTMVTARPEQSQILIQHPDAPSPAQPQVSPAQPTPSTGGRRRRTVDEDPDERRQRFLERNRAAASRCRQKRKLWVSSLEKKAEELTSQNIQLSNEVTLLRNEVAQLKQLLLAHKDCPVTALQKKTQGYLESPKESSEPTGSPAPVIQHSSATAPSNGLSVRSAAEAVATSVLTQMASQRTELSMPIQSHVIMTPQSQSAGR
B12: S100A8 (protein, UniProt P05109 1-93)
chain: MLTELEKALNSIIDVYHKYSLIKGNFHAVYRDDLKKLLETECPQYIRKKGADVWFKELDINTDGAVNFQEFLILVIKMGVAAHKKSHEESHKE
B13: ATF1 (protein, UniProt P18846 1-271)
chain: MEDSHKSTTSETAPQPGSAVQGAHISHIAQQVSSLSESEESQDSSDSIGSSQKAHGILARRPSYRKILKDLSSEDTRGRKGDGENSGVSAAVTSMSVPTPIYQTSSGQYIAIAPNGALQLASPGTDGVQGLQTLTMTNSGSTQQGTTILQYAQTSDGQQILVPSNQVVVQTASGDMQTYQIRTTPSATSLPQTVVMTSPVTLTSQTTKTDDPQLKREIRLMKNREAARECRRKKKEYVKCLENRVAVLENQNKTLIEELKTLKDLYSNKSV

No constants are given. Whether binding was seen depends on the method and setting. In cells and extracts the contact can be indirect. A yes stands for co-enrichment or nearness to the bait. Other partners may have been found.

This assay has as its target p65(wt)-HA-miniTurbo (human) (UniProt Q04206). Kind of assay: proximity labelling.
Turning to B1, the binding entry is reported as “binds”. As for B2, the binding entry is recorded as “binds”. With B3 the entry was “binds”. As to B4, the binding result is given as “binds”.

As to B5, the binding result was “binds”. Turning to B6, the binding result is “binds”.

As to B7, the binding result is recorded as “binds”. With B8 the entry was “binds”. In the case of B9, the binding entry is “binds”.

For B10, the binding entry is on record as “binds”. In the case of B11, the binding result is “binds”. Regarding B12, the binding entry is reported as “binds”. For the molecule B13, the binding entry was “binds”.
